Measurements from “University of Dundee, Small-Polar-MMV Screening Library” (2021), ChEMBL document CHEMBL3988442.

Sequences of proteins named here, by UniProt entry; tags and fusion partners are left off.
UniProt E9BF75, entry or part of it: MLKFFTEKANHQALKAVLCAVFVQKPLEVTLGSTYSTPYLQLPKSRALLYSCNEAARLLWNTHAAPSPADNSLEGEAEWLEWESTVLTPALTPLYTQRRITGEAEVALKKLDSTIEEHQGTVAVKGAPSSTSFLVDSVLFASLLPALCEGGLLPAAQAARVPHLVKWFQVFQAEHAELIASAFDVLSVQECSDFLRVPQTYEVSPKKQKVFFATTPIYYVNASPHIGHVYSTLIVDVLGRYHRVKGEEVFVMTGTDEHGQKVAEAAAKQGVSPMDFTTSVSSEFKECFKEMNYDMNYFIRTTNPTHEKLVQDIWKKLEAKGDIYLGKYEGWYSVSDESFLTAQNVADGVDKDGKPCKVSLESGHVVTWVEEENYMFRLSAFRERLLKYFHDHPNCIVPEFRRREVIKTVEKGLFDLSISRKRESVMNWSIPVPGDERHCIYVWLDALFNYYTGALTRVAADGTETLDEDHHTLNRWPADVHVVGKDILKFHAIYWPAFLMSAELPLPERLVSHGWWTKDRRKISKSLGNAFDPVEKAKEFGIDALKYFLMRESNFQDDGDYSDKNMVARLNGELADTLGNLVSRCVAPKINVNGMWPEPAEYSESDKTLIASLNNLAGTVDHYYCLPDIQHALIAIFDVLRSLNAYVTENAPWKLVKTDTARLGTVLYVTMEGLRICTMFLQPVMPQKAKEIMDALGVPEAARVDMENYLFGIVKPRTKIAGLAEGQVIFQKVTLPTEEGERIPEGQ

A: 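Methionyl-tRNA synthetase (putative), Leishmania donovani (UniProt E9BF75). Primary screen of methionyl-tRNA synthetase; the read-out is not stated. The test concentration is not given. Values are per cent inhibition. Of about 68,000 compounds tested this way, about 24 (0.035%) reached 50% or more in at least one test.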
B: 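Assay on Mycobacterium tuberculosis, filed only as a heat shock assay from Cornell; the read-out is not stated. The concentration is filed as 10 mM, unlikely as a test dose, so the dose is not known. Higher reads as stronger inhibition (inferred: compounds with an IC50 in retests scored well above the rest). About 69,000 compounds were tested under these conditions; 1.4% (about 930) showed 50% or more at least once.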

Results are percentages, as filed. The record does not define 0% and 100%; most values in the screen are far below 50% and negative numbers occur (in some assays of this library far below -100). This is an unselected part of the compounds tested. A dash means the value is not listed here; it may have been measured.

{"smiles": "CN(CCO)C[C@@H]1CN(Cc2ccccc2-c2ccccc2)C[C@@H]1CO", "A": 4.963, "B": -0.8673}
{"smiles": "COc1cc(NC(=O)NC2CC2)ccc1N1CCOC1=O", "A": 3.377, "B": -2.439}
{"smiles": "Fc1ccccc1CN1C[C@@H](OCc2ccncc2)[C@H]2OCCC[C@H]21", "A": 10.24}
{"smiles": "O=C(NCCC1=CCCCC1)C1CCN(c2ccc3nncn3n2)CC1", "A": 8.148, "B": -8.435}
{"smiles": "CN(CCCc1cnn(C)c1)C(=O)C1CCCN(C2CCCC2)C1", "stereo": "configuration not stated", "A": 9.622, "B": -7.89}
{"smiles": "CC1=Nc2c(c(=O)[nH]n2C(C)C)C(c2ccc3ncccc3c2)S1", "stereo": "configuration not stated", "A": 12.42, "B": 7.705}
{"smiles": "CC(CNC(=O)N1CCS(=O)(=O)CC1)Cc1cccs1", "stereo": "configuration not stated", "B": 5.903}
{"smiles": "Cc1cnc(-c2nc(C3CCN(C(=O)Cc4ccsc4)CC3)no2)cn1", "A": 23.15, "B": -2.047}
{"smiles": "COc1ncnc(N)c1CNCc1ccccc1-n1cccn1", "A": 12.7, "B": 13.05}
{"smiles": "CCCN1CCN(Cc2cccc(OCC(N)=O)c2)[C@H]2CS(=O)(=O)C[C@H]21", "A": 19.88}
{"smiles": "Cn1ccc2c(C(=O)N3CCCC(c4nnc[nH]4)C3)cccc21", "stereo": "configuration not stated", "A": 14.53, "B": 4.588}
{"smiles": "O=C([C@@H]1CC[C@@H]2[C@@H](CCN2Cc2cccs2)O1)N1CCCCO1", "A": 14.81}
{"smiles": "COc1cccc([C@@H]2CCN(Cc3cccc(C)n3)C[C@H]2O)c1", "A": 3.976, "B": -6.914}
{"smiles": "CS(=O)(=O)CCC(=O)N1CCC(c2cccc(F)c2)C1", "stereo": "configuration not stated", "A": 9.946, "B": -0.683}
{"smiles": "COCCN1C[C@@H](C)[C@@]2(COCCN(C(=O)c3cccs3)C2)C1.O=C(O)C(F)(F)F", "B": -12.26}
{"smiles": "Cc1cc(CNC(=O)Nc2ccc(C(=O)NC3CC3)cc2)no1", "A": 23.63, "B": -6.37}
{"smiles": "NC(=O)NC(=O)CN1CCN(c2nccs2)CC1", "A": 12.65, "B": -3.548}
{"smiles": "c1csc(CN2CCCn3cnc(CN4CCCC4)c3C2)c1", "A": 9.841}
{"smiles": "COc1c(CNCc2ccc3c(c2)OCO3)c(C(C)C)nn1C", "A": 13.71, "B": -10.93}
{"smiles": "O=C(NCCCn1cccn1)C1COCC(=O)N1Cc1ccccc1", "stereo": "configuration not stated", "A": 5.167, "B": 2.453}
{"smiles": "O=c1[nH]c(COc2cccc(F)c2)nc2c1CCNC2", "A": 15.23, "B": 8.615}
{"smiles": "COc1ccc(-c2n[nH]cc2CN(C)CCc2scnc2C)c(F)c1", "A": 15.38, "B": -2.027}
{"smiles": "CC(C)c1nc(CN2CCOCC2)cs1", "A": 5.842, "B": 13.52}
{"smiles": "Cc1cc(N2CCOC(C)(C(=O)N(C)C)C2)ncn1", "stereo": "configuration not stated", "A": 13.92, "B": 2.953}
{"smiles": "Cc1nn(C)c2c(NCCn3cccn3)ncnc12", "A": 32.01, "B": 7.134}
{"smiles": "Cc1cc(CN2CCC(CNC(=O)c3cnc(C)nc3C)C2)[nH]n1", "stereo": "configuration not stated", "A": 5.842, "B": -10.7}
{"smiles": "CCNC(=O)C(C)NC(=O)c1cnc(-c2ccc(C)cc2C)s1", "stereo": "configuration not stated", "A": 14.42, "B": -2.557}
{"smiles": "NC(=O)c1ccc(N2CCCCC2)c(NC(=O)c2ccc(F)cc2F)c1", "A": 21.74, "B": 16.79}
{"smiles": "CCn1nnc2c1C(COCCN(C)C)CN(S(=O)(=O)CC)C2", "stereo": "configuration not stated", "A": 11.42}
{"smiles": "Cc1nc(C)n(C2CCCN(C(=O)c3cc(C(N)=O)cs3)C2)n1", "stereo": "configuration not stated", "A": 11.81, "B": -35.99}
{"smiles": "CC(C)n1cnnc1CN(C)Cc1ccc(CN(C)S(C)(=O)=O)o1", "A": 14.78, "B": 14.69}
{"smiles": "CN1CCN(C(=O)c2cc(NC(=O)c3ccccc3)n(C)n2)CC1", "A": -6.306, "B": 14.86}
{"smiles": "CC(C)[C@H](N)C(=O)N1CCSc2ccccc2C1.Cl", "B": -0.8911}
{"smiles": "CN(C)C(=O)N1C[C@H]2CCC[C@@]2(COc2ccccn2)C1", "A": 7.296}
{"smiles": "Cc1cccc(NC(=O)[C@@H]2CCCN2Cc2ccc(C#N)cc2F)n1", "A": 6.366, "B": -18.59}
{"smiles": "CN(Cc1ccccc1NCc1cccnc1)C(=O)c1cccs1", "A": 7.796, "B": -14.86}
{"smiles": "[H][C@@]12CS(=O)(=O)C[C@]1([H])N(C(=O)Nc1ccc(Cl)cc1)CCN2C(C)=O", "B": 7.086}
{"smiles": "Cc1cccc2c1nc(CCO)n2-c1ccc(C(=O)N2CCCC2)o1", "A": 9.6, "B": 10.69}
{"smiles": "O=C1N(CC2CCC2)CCCC12CCN(S(=O)(=O)c1cccnc1)C2", "stereo": "configuration not stated", "A": 8.333, "B": -7.481}
{"smiles": "O=C(c1cscn1)N1CCC(O)(Cn2ccc3ccncc32)CC1", "A": 15.53, "B": 1.12}
{"smiles": "CCOCC1CN(CC2CC2)Cc2nn(CC3CC3)cc21", "stereo": "configuration not stated", "A": 11.24}
{"smiles": "[H][C@]12CCC[C@@]1(CO)CN(C(=O)c1cc(C)nc3ccc(CC)cc13)C2", "B": -1.704}
{"smiles": "CCCS(=O)(=O)N1CCN(c2cc(-n3nc(C)cc3C)nc(C)n2)CC1", "A": 7.087, "B": -2.845}
{"smiles": "Cc1noc(-c2c[nH]nc2C2CCCN2C(=O)c2ccccc2)c1C", "stereo": "configuration not stated", "A": 16.46, "B": 12.87}
{"smiles": "CN(CCC#N)C(=O)CN1CCC(c2cc3ccccc3[nH]2)CC1", "A": -0.8065, "B": -67.78}
{"smiles": "CCC(=O)N1CCC(NC2CCSCC2)C1", "stereo": "configuration not stated", "A": 11.15, "B": 17.48}
{"smiles": "O=C(Cc1ccccn1)N1C[C@@H]2CC[C@H](C1)N(Cc1ccccc1)C2=O", "A": 7.609}
{"smiles": "O=C(O)C(F)(F)F.[H][C@]12CCN(Cc3c(C)noc3C)[C@@]1([H])CC[C@@H](COCC1CC1)O2", "B": -19.61}
{"smiles": "CCS(=O)(=O)N1CCc2c(cccc2NC(=O)NCCO)C1", "A": 3.183, "B": 2.357}

Some entries from above, unchanged:

SMILES	A	B
CCNC(=O)C(C)NC(=O)c1cnc(-c2ccc(C)cc2C)s1 (configuration not stated)	14.42	-2.557
O=c1[nH]c(COc2cccc(F)c2)nc2c1CCNC2	15.23	8.615
O=C(Cc1ccccn1)N1C[C@@H]2CC[C@H](C1)N(Cc1ccccc1)C2=O	7.609	-